In the experiment the target is MLL_(1–160)–GST (UniProt Q03164). Briefly: AlphaScreen or HTRF; out-competition: Flag-LEDGF/p75 (0.3 nM) preincubated with MLL_(1–160)–GST (10 nM) before titration of MBP-LEDGF/p75_(325–530), MBP-HRP-2_(470–552) or MBP alone; both purified.

The chains behind the UniProt entries cited, without tags or fusion partners. Residues count along the entry.
UniProt Q03164, residues 1-160: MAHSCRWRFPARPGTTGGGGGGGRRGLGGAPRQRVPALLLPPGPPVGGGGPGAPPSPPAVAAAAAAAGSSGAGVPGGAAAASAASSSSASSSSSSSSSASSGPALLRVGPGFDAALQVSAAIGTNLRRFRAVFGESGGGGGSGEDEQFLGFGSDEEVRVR
UniProt Q7Z4V5, residues 470-552: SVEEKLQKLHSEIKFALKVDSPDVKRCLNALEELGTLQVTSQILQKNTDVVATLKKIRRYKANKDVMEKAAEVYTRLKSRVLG

No constants are given. Whether binding was seen depends on the method and setting. Some binding calls cover weakened binding; strength is not graded here.

As to “MBP-HRP-2_(470–552) (from UniProt Q7Z4V5 470-552) (domain or fragment)”, the binding entry is reported as “binds”.

These data come from PMC7835958.
